The target in test [1] is T1, C-terminally hexahistidine tagged Ada3(187-702), subunit of the yeast Ada2/Ada3/Gcn5 complex (yeast) (UniProt P32494).
T1 sequence: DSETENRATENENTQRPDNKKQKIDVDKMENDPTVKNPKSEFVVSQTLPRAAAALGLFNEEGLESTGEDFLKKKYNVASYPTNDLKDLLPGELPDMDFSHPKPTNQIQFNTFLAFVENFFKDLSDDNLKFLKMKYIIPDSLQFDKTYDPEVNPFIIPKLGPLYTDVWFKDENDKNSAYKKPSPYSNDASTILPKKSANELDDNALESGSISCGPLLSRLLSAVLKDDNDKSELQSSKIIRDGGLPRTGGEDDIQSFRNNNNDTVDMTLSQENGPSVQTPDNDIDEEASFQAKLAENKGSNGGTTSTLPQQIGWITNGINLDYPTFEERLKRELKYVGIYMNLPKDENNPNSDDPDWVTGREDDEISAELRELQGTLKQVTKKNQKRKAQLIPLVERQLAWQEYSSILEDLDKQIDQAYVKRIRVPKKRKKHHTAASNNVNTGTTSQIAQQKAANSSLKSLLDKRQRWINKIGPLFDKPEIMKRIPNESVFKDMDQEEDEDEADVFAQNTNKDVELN
The experiment in a line: co-purification of coexpressed subunits; subunits coexpressed in E. coli BL21(DE3)pLysS (0.2 mM IPTG, 18 °C); complex captured from cell lysates by the C-terminal hexahistidine tag of Ada3(187-702) on Talon cobalt resin, then SourceQ ion-exchange chromatography.

Amino acid sequences for entries named in this document (tags omitted).
UniProt Q03330: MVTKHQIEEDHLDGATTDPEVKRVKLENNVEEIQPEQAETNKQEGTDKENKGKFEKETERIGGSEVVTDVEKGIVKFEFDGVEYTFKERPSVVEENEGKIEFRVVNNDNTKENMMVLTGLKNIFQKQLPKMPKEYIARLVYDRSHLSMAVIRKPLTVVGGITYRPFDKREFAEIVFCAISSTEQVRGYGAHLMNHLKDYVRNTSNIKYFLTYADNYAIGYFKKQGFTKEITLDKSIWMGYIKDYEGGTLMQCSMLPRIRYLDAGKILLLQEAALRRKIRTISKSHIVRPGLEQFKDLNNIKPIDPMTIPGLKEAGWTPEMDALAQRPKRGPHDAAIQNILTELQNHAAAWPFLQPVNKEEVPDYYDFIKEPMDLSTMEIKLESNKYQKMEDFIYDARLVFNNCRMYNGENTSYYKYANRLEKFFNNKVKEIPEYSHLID

The target in test [2] is T2, hexahistidine-tagged Epl1(51-380), subunit of yeast Piccolo NuA4 (yeast) (UniProt P43572).
T2 sequence: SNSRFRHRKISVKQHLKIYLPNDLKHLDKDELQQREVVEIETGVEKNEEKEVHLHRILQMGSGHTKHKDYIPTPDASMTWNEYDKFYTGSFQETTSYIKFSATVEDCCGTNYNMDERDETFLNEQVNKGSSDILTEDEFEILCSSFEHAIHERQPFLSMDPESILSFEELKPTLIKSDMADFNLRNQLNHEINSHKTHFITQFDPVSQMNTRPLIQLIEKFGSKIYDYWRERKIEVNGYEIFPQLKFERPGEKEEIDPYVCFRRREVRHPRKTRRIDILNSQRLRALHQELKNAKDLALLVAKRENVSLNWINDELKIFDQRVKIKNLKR
As to the kind of experiment: co-purification of coexpressed subunits; subunits coexpressed in E. coli BL21(DE3)pLysS; complex captured by the hexahistidine tag of Epl1(51-380) on Talon cobalt resin, tag removed by TEV protease, then SourceQ anion-exchange chromatography.

These are yes or no findings as the source states them, for the method shown. Some entries that bind do so weakly or less than the wild type. Where a sequence is shown, tags or fusion partners need not be part of it.

In the case of “Gcn5, subunit of the yeast Ada2/Ada3/Gcn5 complex (from UniProt Q03330 1-439) (enzyme)”, the binding entry in test [1] was “binds”.

B1: Yng2(1-218), subunit of yeast Piccolo NuA4 (domain or fragment, UniProt P38806 1-218)
chain: MDPSLVLEQTIQDVSNLPSEFRYLLEEIGSNDLKLIEEKKKYEQKESQIHKFIRQQGSIPKHPQEDGLDKEIKESLLKCQSLQREKCVLANTALFLIARHLNKLEKNIALLEEDGVLAPVEEDGDMDSAAEASRESSVVSNSSVKKRRAASSSGSVPPTLKKKKTSRTSKLQNEIDVSSREKSVTPVSPSIEKKIARTKEFKNSRNGKGQNGSPENEE
As for B1, the binding result in test [2] is “binds”.

B2: Ada2, subunit of the yeast Ada2/Ada3/Gcn5 complex (protein, UniProt Q02336 1-434)
chain: MSNKFHCDVCSADCTNRVRVSCAICPEYDLCVPCFSQGSYTGKHRPYHDYRIIETNSYPILCPDWGADEELQLIKGAQTLGLGNWQDIADHIGSRGKEEVKEHYLKYYLESKYYPIPDITQNIHVPQDEFLEQRRHRIESFRERPLEPPRKPMASVPSCHEVQGFMPGRLEFETEFENEAEGPVKDMVFEPDDQPLDIELKFAILDIYNSRLTTRAEKKRLLFENHLMDYRKLQAIDKKRSKEAKELYNRIKPFARVMTAQDFEEFSKDILEELHCRARIQQLQEWRSNGLTTLEAGLKYERDKQARISSFEKFGASTAASLSEGNSRYRSNSAHRSNAEYSQNYSENGGRKKNMTISDIQHAPDYALLSNDEQQLCIQLKILPKPYLVLKEVMFRELLKTGGNLSKSACRELLNIDPIKANRIYDFFQSQNWM
For the molecule B2, in test [1], the binding entry was “binds”.

B3: Esa1, subunit of yeast Piccolo NuA4 (enzyme, UniProt Q08649 1-445)
chain: MSHDGKEEPGIAKKINSVDDIIIKCQCWVQKNDEERLAEILSINTRKAPPKFYVHYVNYNKRLDEWITTDRINLDKEVLYPKLKATDEDNKKQKKKKATNTSETPQDSLQDGVDGFSRENTDVMDLDNLNVQGIKDENISHEDEIKKLRTSGSMTQNPHEVARVRNLNRIIMGKYEIEPWYFSPYPIELTDEDFIYIDDFTLQYFGSKKQYERYRKKCTLRHPPGNEIYRDDYVSFFEIDGRKQRTWCRNLCLLSKLFLDHKTLYYDVDPFLFYCMTRRDELGHHLVGYFSKEKESADGYNVACILTLPQYQRMGYGKLLIEFSYELSKKENKVGSPEKPLSDLGLLSYRAYWSDTLITLLVEHQKEITIDEISSMTSMTTTDILHTAKTLNILRYYKGQHIIFLNEDILDRYNRLKAKKRRTIDPNRLIWKPPVFTASQLRFAW
Consider B3, for which the binding entry in test [2] was “binds”.

Values taken from paper PMC12661029.
